Experimental data reported in the supplement of paper PMC10849652.
The other results are listed elsewhere or left out.

By UniProt entry, the sequences of proteins in these tests, tags left out. Where a name states a change or a piece, a line headed by the entry shows the natural chain unless it says otherwise.
UniProt P10644, whole entry, looked up: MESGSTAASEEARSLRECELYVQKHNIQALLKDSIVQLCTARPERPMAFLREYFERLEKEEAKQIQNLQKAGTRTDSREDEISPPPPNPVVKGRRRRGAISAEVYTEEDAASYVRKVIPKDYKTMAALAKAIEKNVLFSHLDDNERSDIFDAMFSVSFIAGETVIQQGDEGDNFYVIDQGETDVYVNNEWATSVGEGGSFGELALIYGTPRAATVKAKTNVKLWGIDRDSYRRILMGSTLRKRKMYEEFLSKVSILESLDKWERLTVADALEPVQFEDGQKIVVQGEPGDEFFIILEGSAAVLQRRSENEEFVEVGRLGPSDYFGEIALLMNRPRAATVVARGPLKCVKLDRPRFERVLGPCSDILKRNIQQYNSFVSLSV
UniProt Q06830: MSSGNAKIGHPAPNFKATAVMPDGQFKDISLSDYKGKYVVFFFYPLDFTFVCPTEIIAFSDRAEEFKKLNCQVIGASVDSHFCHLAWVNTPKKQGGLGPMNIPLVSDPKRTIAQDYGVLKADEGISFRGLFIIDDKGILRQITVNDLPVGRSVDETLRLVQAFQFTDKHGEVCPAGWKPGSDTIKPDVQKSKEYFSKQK
UniProt P62714, whole entry, looked up: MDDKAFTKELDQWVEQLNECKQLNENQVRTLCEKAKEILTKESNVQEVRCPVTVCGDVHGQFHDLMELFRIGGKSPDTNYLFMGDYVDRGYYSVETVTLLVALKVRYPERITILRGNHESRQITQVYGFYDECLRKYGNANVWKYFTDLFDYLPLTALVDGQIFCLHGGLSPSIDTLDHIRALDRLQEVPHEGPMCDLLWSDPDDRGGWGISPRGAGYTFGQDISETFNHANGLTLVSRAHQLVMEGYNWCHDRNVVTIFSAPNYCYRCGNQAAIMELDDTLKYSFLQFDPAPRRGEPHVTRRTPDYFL
UniProt P13861, whole entry, looked up: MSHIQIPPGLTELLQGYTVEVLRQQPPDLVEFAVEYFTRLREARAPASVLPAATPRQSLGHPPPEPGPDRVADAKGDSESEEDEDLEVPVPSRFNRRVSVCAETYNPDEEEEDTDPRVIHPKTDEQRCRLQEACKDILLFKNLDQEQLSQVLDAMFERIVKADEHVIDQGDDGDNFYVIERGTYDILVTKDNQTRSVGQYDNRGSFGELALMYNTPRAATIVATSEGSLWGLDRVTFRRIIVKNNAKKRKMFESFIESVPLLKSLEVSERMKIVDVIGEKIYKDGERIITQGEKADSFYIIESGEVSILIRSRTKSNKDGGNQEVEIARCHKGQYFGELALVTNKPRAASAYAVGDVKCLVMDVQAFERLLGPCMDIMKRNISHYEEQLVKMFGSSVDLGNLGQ
UniProt P41236: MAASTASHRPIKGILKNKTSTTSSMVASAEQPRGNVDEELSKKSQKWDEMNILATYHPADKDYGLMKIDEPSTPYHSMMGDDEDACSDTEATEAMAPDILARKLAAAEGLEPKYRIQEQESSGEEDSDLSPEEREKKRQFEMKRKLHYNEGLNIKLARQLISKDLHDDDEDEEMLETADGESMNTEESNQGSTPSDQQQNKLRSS
UniProt O15091: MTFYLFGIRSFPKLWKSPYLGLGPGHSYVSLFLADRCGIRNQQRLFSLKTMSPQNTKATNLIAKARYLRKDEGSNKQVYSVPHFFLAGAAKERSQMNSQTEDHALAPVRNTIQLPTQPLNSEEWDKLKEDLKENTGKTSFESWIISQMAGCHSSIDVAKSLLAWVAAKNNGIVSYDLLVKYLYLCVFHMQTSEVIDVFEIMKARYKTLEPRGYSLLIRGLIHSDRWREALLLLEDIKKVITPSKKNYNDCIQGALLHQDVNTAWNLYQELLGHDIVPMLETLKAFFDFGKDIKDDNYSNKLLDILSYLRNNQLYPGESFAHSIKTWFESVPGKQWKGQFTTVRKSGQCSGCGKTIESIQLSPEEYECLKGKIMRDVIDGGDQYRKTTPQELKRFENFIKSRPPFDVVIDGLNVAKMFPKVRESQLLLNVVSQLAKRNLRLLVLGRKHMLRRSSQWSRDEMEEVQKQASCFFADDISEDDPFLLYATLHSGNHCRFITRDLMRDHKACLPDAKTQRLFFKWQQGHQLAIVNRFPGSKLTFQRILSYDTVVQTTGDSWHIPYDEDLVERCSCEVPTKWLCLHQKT
UniProt Q9Y570: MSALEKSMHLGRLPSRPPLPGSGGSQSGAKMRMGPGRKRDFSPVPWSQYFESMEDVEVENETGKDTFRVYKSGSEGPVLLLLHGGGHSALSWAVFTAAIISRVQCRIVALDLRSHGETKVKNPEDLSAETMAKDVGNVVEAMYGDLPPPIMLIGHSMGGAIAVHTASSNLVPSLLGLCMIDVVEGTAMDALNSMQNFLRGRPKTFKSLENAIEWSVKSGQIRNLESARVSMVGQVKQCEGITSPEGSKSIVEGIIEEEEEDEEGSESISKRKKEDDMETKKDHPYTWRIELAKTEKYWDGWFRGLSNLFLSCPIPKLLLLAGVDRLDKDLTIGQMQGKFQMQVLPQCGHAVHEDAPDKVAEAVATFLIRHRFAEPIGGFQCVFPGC
UniProt O75400: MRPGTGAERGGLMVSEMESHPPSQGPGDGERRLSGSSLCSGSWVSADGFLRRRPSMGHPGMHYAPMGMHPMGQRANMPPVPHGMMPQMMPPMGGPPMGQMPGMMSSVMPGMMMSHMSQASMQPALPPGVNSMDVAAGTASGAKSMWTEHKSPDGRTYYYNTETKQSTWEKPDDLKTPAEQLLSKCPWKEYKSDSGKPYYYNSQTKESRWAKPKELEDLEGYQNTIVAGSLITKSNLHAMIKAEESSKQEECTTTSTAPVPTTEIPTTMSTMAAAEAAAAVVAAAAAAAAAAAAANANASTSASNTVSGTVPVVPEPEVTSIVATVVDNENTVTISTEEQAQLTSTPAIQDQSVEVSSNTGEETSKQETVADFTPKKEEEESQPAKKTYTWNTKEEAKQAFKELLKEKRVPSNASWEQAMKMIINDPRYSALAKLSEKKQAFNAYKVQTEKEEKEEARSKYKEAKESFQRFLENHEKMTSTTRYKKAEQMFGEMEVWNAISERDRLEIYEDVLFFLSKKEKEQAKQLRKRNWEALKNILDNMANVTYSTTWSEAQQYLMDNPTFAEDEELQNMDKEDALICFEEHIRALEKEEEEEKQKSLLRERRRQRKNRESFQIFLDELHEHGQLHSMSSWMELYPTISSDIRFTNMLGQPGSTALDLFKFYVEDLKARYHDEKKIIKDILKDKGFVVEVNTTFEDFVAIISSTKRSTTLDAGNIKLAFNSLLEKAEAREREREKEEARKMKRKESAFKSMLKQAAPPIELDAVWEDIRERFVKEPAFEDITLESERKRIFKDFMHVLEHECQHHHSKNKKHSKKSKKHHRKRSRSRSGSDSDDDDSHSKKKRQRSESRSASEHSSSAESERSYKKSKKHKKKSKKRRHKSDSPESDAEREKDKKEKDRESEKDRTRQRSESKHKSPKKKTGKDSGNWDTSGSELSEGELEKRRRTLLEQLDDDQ
UniProt P48454, whole entry, looked up: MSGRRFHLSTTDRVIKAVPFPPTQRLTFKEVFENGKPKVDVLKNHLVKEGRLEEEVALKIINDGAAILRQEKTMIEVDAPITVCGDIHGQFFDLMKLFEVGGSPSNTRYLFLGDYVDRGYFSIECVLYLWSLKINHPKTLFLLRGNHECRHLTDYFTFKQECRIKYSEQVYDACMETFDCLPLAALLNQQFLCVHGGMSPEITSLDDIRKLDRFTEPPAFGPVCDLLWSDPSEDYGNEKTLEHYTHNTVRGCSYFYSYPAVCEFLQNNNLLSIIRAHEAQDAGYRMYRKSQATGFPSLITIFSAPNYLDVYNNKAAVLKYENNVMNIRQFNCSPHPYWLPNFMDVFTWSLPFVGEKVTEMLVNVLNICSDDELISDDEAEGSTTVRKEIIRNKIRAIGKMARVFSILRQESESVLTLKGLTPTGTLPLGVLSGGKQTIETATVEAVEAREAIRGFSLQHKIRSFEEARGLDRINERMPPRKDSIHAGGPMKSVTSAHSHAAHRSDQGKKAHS
UniProt O43395: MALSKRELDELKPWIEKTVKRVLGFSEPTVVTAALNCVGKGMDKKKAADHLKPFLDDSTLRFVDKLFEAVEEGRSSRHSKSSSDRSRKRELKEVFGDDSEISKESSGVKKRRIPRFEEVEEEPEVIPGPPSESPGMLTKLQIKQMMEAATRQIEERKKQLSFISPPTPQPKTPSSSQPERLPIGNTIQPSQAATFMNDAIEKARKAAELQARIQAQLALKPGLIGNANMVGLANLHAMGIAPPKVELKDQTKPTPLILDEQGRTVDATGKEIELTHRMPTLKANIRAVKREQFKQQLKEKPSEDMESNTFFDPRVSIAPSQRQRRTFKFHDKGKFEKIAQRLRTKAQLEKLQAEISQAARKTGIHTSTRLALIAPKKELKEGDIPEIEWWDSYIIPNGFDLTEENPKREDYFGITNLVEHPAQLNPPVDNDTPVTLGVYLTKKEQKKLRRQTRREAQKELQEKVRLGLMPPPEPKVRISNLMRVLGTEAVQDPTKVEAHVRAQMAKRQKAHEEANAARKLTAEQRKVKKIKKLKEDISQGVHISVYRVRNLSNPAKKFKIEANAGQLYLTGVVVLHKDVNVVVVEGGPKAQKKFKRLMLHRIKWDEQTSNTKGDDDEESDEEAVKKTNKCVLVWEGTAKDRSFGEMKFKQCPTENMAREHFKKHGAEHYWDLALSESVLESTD
UniProt Q9BZL6: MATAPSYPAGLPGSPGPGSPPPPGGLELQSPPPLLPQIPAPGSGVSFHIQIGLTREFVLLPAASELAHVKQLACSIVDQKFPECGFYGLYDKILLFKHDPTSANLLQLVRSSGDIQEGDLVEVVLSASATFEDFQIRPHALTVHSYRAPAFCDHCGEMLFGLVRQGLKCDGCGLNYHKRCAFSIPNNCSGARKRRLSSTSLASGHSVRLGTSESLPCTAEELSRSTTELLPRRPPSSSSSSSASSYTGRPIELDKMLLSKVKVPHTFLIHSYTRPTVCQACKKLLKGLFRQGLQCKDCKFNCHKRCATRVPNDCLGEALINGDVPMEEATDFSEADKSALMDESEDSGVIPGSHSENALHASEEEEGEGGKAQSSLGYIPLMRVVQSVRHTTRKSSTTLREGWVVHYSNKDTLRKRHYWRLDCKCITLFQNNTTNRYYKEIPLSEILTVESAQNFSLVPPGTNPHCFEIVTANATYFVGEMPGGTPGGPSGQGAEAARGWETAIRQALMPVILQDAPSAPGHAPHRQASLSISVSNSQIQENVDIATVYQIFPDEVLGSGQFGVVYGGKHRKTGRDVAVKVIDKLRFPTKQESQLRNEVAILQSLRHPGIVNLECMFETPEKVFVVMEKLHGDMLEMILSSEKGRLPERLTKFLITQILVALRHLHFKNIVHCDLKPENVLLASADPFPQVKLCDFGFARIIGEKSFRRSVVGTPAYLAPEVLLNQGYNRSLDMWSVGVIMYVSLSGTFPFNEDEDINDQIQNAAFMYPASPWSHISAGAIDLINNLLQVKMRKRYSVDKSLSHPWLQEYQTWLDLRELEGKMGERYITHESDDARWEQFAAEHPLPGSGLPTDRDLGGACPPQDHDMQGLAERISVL
UniProt Q5H9R7: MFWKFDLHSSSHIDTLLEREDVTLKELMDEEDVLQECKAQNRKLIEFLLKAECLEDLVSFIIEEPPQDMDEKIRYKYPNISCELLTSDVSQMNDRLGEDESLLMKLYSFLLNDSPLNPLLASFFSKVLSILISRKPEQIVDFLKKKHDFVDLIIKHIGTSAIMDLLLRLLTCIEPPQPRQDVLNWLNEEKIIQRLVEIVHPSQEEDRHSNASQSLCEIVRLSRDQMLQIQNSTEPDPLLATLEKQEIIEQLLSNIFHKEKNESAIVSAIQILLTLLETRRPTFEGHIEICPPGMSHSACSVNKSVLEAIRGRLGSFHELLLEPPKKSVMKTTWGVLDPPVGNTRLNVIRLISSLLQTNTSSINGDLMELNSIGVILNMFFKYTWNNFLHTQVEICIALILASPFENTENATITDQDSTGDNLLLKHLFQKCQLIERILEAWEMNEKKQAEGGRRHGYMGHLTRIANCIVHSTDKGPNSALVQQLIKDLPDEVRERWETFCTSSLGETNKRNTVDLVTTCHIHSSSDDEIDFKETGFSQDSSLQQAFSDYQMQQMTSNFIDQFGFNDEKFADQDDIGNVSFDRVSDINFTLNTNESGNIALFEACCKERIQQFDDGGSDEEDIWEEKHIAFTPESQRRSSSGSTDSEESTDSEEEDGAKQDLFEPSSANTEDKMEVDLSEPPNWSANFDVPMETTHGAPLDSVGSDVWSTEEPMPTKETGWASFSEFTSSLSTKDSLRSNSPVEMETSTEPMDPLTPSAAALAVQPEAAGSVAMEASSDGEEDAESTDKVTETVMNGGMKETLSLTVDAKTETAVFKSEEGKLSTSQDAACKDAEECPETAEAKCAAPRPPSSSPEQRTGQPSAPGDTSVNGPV

Tests used:
Assay in all cases: log2 fold change, soluble protein after heating vs DMSO (PISA); higher = thermal stabilisation; K562 lysate, 10 uM; active = over 0.2 and 3.5 SD of the protein, either way, in both replicates (recomputed)
[1] = compound: NCC(=O)Nc1ccc(-n2nc(C(F)(F)F)cc2-c2ccc3c(ccc4ccccc43)c2)cc1
How it was run: (§1)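 Soluble protein was defined as the supernatant remaining after 21,000xg for 90 min, following pooling of heated aliquots and adjustment to 0.5% NP-40 at 4°C. Before that, crude K562 extract at 1 mg/mL protein in PBS pH 7.4 with 1 mM MgCl2 was treated with 10 μM compound for 30 min and heated for 3 min across 48°C-58°C. Quantification used TMTpro 16plex LC-MS/MS with channel sums equalised, and values are log-two fold changes in thermal stability relative to solvent controls from duplicates.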

[2] = compound: O=C(CCCCCCC(=O)Nc1ccccc1)NO [vorinostat]
How it was run: as §1

[3] = compound: O=C(O)c1ccc2c(c1)nc(Nc1cccc(Cl)c1)c1ccncc12 [silmitasertib]
How it was run: as §1

[4] = compound: O=C1NC(=O)C(c2cnc3ccccn23)=C1c1cn2c3c(cc(F)cc13)CN(C(=O)N1CCCCC1)CC2
How it was run: as §1

[5] = compound: c1cn2cc(-c3ccc4cn[nH]c4c3)nc(Nc3ccc(N4CCOCC4)cc3)c2n1 [entospletinib]
How it was run: as §1

Row | Target | log2 fold change [1] | log2 fold change [2] | log2 fold change [3] | log2 fold change [4] | log2 fold change [5]
1 | PRKAR1A (UniProt P10644) | inactive: -0.01 | inactive: 0.003 | inactive: 0.048 | inactive: 0.02 | inactive: 0.002
2 | PRKACB isoform 2 (UniProt P22694) | inactive: -0.014 | inactive: -0.018 | inactive: 0.054 | inactive: 0.002 | inactive: 0.042
3 | PRKACA (UniProt P17612) | inactive: -0.114 | inactive: 0.007 | inactive: -0.02 | inactive: 0.033 | inactive: 0.03
4 | PRKDC (UniProt P78527) | inactive: -0.089 | active: -0.426 | active: 0.762 | inactive: 0.207 | inactive: 0.013
5 | PRDX1 (UniProt Q06830) | inactive: 0.005 | inactive: 0.122 | inactive: -0.024 | inactive: -0.005 | inactive: 0.017
6 | PPP2R5E (UniProt Q16537) | inactive: -0.003 | inactive: -0.054 | inactive: 0.031 | inactive: 0.021 | inactive: 0.001
7 | PPP2CB (UniProt P62714) | inactive: 0.005 | inactive: 0.054 | inactive: 0 | inactive: 0.006 | inactive: -0.013
8 | PRKAR2A (UniProt P13861) | inactive: 0.005 | inactive: -0.037 | inactive: -0.008 | inactive: -0.06 | inactive: -0.035
9 | PPIL2 (UniProt Q13356) | inactive: 0.015 | active: -0.32 | inactive: 0.019 | inactive: -0.009 | inactive: 0.014
10 | PPP1R2 (UniProt P41236) | inactive: 0.001 | inactive: 0.106 | inactive: -0.086 | inactive: 0.029 | inactive: 0.049
11 | PRKCD (UniProt Q05655) | inactive: 0.008 | inactive: -0.075 | inactive: -0.006 | inactive: -0.005 | inactive: 0.019
12 | PRORP (UniProt O15091) | inactive: 0.068 | inactive: -0.078 | inactive: 0.007 | inactive: -0.013 | inactive: 0.042
13 | PPME1 isoform 4 (UniProt Q9Y570) | inactive: -0.02 | inactive: -0.03 | inactive: 0.013 | inactive: 0.005 | inactive: 0.031
14 | PRPF40A (UniProt O75400) | inactive: 0.025 | inactive: -0.024 | inactive: -0.021 | inactive: -0.03 | inactive: 0
15 | PPP3CC (UniProt P48454) | inactive: 0.01 | inactive: -0.075 | inactive: 0.004 | inactive: 0.029 | inactive: 0.05
16 | PRPF3 (UniProt O43395) | inactive: -0.046 | inactive: -0.035 | inactive: 0.063 | inactive: 0.006 | inactive: 0.011
17 | PRKD2 isoform 3 (UniProt Q9BZL6) | inactive: -0.043 | active: -0.326 | inactive: 0.051 | inactive: 0.088 | inactive: 0.052
18 | PPP6R3 isoform 2 (UniProt Q5H9R7) |  | inactive: 0.265 | inactive: -0.008 |  | 

Reformatted as a markdown table: entries from further up

| Row | Target | log2 fold change [1] | log2 fold change [2] | log2 fold change [3] | log2 fold change [4] | log2 fold change [5] |
| --- | --- | --- | --- | --- | --- | --- |
| 4 | PRKDC (UniProt P78527) | inactive: -0.089 | active: -0.426 | active: 0.762 | inactive: 0.207 | inactive: 0.013 |
| 8 | PRKAR2A (UniProt P13861) | inactive: 0.005 | inactive: -0.037 | inactive: -0.008 | inactive: -0.06 | inactive: -0.035 |
